These are yes or no findings as the source states them, for the method shown. In cells and extracts the contact can be indirect. Here binding means that the protein was enriched with, or labelled near, the bait; the list need not be complete.
biological target: β-arrestin1-APEX2 (UniProt P49407); test: proximity labelling; HeLa cells expressing βarr1-APEX2 or APEX2; 500 µM biotin phenol 1 h, basal or 50 nM CXCL12 for 5 or 60 min, 1 mM H2O2 1 min; streptavidin agarose purification of lysates; immunoblotting

Sequences of proteins named here, by UniProt entry; tags and fusion partners are left off.
UniProt P49407: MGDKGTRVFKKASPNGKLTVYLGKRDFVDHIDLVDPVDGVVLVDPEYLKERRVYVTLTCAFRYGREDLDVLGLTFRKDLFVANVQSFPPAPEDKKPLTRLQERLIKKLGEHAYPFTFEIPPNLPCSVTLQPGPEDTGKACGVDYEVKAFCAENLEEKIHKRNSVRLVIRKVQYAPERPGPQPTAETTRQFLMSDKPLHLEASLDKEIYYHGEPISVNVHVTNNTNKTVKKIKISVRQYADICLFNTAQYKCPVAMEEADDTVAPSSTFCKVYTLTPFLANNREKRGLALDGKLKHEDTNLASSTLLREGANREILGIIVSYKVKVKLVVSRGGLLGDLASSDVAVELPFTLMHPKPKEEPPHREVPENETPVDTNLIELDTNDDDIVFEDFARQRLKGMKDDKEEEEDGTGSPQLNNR
UniProt Q92783: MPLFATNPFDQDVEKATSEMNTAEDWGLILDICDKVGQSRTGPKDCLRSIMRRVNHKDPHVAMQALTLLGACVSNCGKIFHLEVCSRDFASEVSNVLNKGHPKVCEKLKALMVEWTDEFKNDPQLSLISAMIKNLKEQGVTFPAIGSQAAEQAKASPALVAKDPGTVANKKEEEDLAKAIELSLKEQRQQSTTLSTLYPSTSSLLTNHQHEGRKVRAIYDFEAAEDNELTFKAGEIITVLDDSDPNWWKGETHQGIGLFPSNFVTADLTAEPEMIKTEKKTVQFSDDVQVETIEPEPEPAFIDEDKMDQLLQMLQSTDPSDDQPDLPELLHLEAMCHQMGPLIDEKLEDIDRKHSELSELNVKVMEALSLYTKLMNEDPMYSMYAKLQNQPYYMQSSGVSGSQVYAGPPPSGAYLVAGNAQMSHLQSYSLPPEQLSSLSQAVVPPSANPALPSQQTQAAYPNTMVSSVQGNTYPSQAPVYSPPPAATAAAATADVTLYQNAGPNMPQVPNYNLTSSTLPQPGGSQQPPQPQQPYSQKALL
UniProt Q05397: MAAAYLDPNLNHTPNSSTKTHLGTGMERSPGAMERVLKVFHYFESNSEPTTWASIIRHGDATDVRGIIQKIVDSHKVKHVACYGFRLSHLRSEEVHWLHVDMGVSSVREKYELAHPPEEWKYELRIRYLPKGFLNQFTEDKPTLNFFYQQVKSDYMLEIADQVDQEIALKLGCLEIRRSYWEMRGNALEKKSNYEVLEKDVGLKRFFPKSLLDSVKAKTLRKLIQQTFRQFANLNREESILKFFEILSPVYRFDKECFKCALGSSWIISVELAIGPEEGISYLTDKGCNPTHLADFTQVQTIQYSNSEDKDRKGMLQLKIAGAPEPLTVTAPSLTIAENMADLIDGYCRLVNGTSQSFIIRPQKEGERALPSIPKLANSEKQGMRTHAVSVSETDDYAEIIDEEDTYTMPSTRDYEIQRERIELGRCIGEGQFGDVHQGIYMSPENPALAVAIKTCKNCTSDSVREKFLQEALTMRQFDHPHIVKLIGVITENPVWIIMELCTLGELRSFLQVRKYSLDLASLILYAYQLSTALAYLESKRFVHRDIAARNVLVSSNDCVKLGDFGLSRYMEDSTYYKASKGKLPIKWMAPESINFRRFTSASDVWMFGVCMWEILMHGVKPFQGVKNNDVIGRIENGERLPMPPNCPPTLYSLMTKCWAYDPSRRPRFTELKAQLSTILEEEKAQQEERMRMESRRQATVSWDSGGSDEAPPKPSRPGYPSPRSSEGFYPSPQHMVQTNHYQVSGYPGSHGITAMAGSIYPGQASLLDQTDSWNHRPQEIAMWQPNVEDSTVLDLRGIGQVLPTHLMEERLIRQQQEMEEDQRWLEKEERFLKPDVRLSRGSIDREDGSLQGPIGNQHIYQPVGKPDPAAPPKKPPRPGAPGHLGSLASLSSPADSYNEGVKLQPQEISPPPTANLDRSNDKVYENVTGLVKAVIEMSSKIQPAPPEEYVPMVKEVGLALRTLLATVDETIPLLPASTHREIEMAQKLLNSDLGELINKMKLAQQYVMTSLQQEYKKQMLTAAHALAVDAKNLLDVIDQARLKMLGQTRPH

Row | binding | Molecule
1 | binds | STAM1 (from UniProt Q92783 1-540)
2 | binds | FAK (from UniProt Q05397 1-1052)

biological target: β-arrestin1-APEX2 (UniProt P49407); test: proximity labelling; HeLa cells expressing βarr1-APEX2 or APEX2, labelled as for immunoblotting; frozen aliquots, streptavidin agarose purification, trypsin digestion, TMT labelling, quantitative mass spectrometry; hits: abundance ratio CXCL12 (5 or 60 min) over basal of 1.2 or more and not enriched with APEX2 alone

Row | binding | Molecule
3 | binds | eIF5-mimic protein 1 (protein, UniProt Q9Y6E2 1-419) MNKHQKPVLTGQRFKTRKRDEKEKFEPTVFRDTLVQGLNEAGDDLEAVAKFLDSTGSRLDYRRYADTLFDILVAGSMLAPGGTRIDDGDKTKMTNHCVFSANEDHETIRNYAQVFNKLIRRYKYLEKAFEDEMKKLLLFLKAFSETEQTKLAMLSGILLGNGTLPATILTSLFTDSLVKEGIAASFAVKLFKAWMAEKDANSVTSSLRKANLDKRLLELFPVNRQSVDHFAKYFTDAGLKELSDFLRVQQSLGTRKELQKELQERLSQECPIKEVVLYVKEEMKRNDLPETAVIGLLWTCIMNAVEWNKKEELVAEQALKHLKQYAPLLAVFSSQGQSELILLQKVQEYCYDNIHFMKAFQKIVVLFYKADVLSEEAILKWYKEAHVAKGKSVFLDQMKKFVEWLQNAEEESESEGEEN
4 | binds | SYNPO protein (protein, UniProt Q8N3V7 1-929) MLGPHLPPPPLAPSEGRPTPCAFQIPDGSYRCLALEAEESSGEEGLQGEVGPTDLEEDEGVSRSGDDSACRVTQGTPQLPKALGIQPPSCSREEQGASQHDDRASQDWDVVKAGQMMTASPSPGPGPRVAQKPALGRSTSLTEKDLKEAKARSQQIAAQLTTPPSSNSRGVQLFNRRRQRVNEFTLESHGQRGQKPSQESLRVLPSSLPGHAPGLSLSSTSLPEPGPPRHPSPQSPDRGVPGHSMEGYSEEASLLRHLEKVASEEEEVPLVVYLKENAALLTANGLHLSQNREAQQSSPAPPPAEVHSPAADVNQNLASPSATLTTPTSNSSHNPPATDVNQNPPATVVPQSLPLSSIQQNSSEAQLPSNGTGPASKPSTLCADGQPQAPAEEVRCSTLLIDKVSTPATTTSTFSREATLIPSSRPPASDFMSSSLLIDIQPNTLVVSADQEMSGRAAATTPTKVYSEVHFTLAKPPSVVNRTARPFGIQAPGGTSQMERSPMLERRHFGEKAPAPQPPSLPDRSPRPQRHIMSRSPMVERRMMGQRSPASERRPLGNFTAPPTYTETLSTAPLASWVRSPPSYSVLYPSSDPKSSHLKGQAVPASKTGILEESMARRGSRKSMFTFVEKPKVTPNPDLLDLVQTADEKRRQRDQGEVGVEEEPFALGAEASNFQQEPAPRDRASPAAAEEVVPEWASCLKSPRIQAKPKPKPNQNLSEASGKGAELYARRQSRMEKYVIESSSHTPELARCPSPTMSLPSSWKYPTNAPGAFRVASRSPARTPPASLYHGYLPENGVLRPEPTKQPPYQLRPSLFVLSPIKEPAKVSPRAASPAKPSSLDLVPNLPKGALPPSPALPRPSRSSPGLYTSPGQDSLQPTAVSPPYGGDISPVSPSRAWSPRAKQAPRPSFSTRNAGIEAQVWKPSFCFK
5 | binds | Serine/threonine-protein kinase TAO1 (protein, UniProt Q7L7X3 1-1001) MPSTNRAGSLKDPEIAELFFKEDPEKLFTDLREIGHGSFGAVYFARDVRTNEVVAIKKMSYSGKQSTEKWQDIIKEVKFLQRIKHPNSIEYKGCYLREHTAWLVMEYCLGSASDLLEVHKKPLQEVEIAAITHGALQGLAYLHSHTMIHRDIKAGNILLTEPGQVKLADFGSASMASPANSFVGTPYWMAPEVILAMDEGQYDGKVDVWSLGITCIELAERKPPLFNMNAMSALYHIAQNESPTLQSNEWSDYFRNFVDSCLQKIPQDRPTSEELLKHIFVLRERPETVLIDLIQRTKDAVRELDNLQYRKMKKLLFQEAHNGPAVEAQEEEEEQDHGVGRTGTVNSVGSNQSIPSMSISASSQSSSVNSLPDVSDDKSELDMMEGDHTVMSNSSVIHLKPEEENYREEGDPRTRASDPQSPPQVSRHKSHYRNREHFATIRTASLVTRQMQEHEQDSELREQMSGYKRMRRQHQKQLMTLENKLKAEMDEHRLRLDKDLETQRNNFAAEMEKLIKKHQAAMEKEAKVMSNEEKKFQQHIQAQQKKELNSFLESQKREYKLRKEQLKEELNENQSTPKKEKQEWLSKQKENIQHFQAEEEANLLRRQRQYLELECRRFKRRMLLGRHNLEQDLVREELNKRQTQKDLEHAMLLRQHESMQELEFRHLNTIQKMRCELIRLQHQTELTNQLEYNKRRERELRRKHVMEVRQQPKSLKSKELQIKKQFQDTCKIQTRQYKALRNHLLETTPKSEHKAVLKRLKEEQTRKLAILAEQYDHSINEMLSTQALRLDEAQEAECQVLKMQLQQELELLNAYQSKIKMQAEAQHDRELRELEQRVSLRRALLEQKIEEEMLALQNERTERIRSLLERQAREIEAFDSESMRLGFSNMVLSNLSPEAFSHSYPGASGWSHNPTGGPGPHWGHPMGGPPQAWGHPMQGGPQPWGHPSGPMQGVPRGSSMGVRNSPQALRRTASGGRTEQGMSRSTSVTSQISNGSHMSYT
6 | binds | Delta(24)-sterol reductase (protein, UniProt Q15392 23-516) LEFVLIHQRWVFVCLFLLPLSLIFDIYYYVRAWVVFKLSSAPRLHEQRVRDIQKQVREWKEQGSKTFMCTGRPGWLTVSLRVGKYKKTHKNIMINLMDILEVDTKKQIVRVEPLVTMGQVTALLTSIGWTLPVLPELDDLTVGGLIMGTGIESSSHKYGLFQHICTAYELVLADGSFVRCTPSENSDLFYAVPWSCGTLGFLVAAEIRIIPAKKYVKLRFEPVRGLEAICAKFTHESQRQENHFVEGLLYSLDEAVIMTGVMTDEAEPSKLNSIGNYYKPWFFKHVENYLKTNREGLEYIPLRHYYHRHTRSIFWELQDIIPFGNNPIFRYLFGWMVPPKISLLKLTQGETLRKLYEQHHVVQDMLVPMKCLQQALHTFQNDIHVYPIWLCPFILPSQPGLVHPKGNEAELYIDIGAYGEPRVKHFEARSCMRQLEKFVRSVHGFQMLYADCYMNREEFWEMFDGSLYHKLREKLGCQDAFPEVYDKICKAARH

Source: publication PMC9967311
